{"source": "paper PMC12040169", "about": "(PLOS Biology, 2025)", "note": "Some of the results follow."}
{"system": "T1, CTL2-GFP (C. trachomatis L2/434/Bu, GFP-expressing)", "T1 construct": "L2/434/Bu, GFP-expressing", "design": "species or system HeLa; Intracellular C. trachomatis growth in HeLa cells, bulk GFP fluorescence relative to DMSO", "conditions": "bulk GFP, single well; 28.5 h, 10 µM; inhibitor", "units": {"% of control remaining": "%"}}
{"smiles": "Nc1ccc2ccc(-c3ccc4c(c3)CCO4)nc2n1", "note": "[CBK067625]", "% of control remaining": 132.66}
{"smiles": "CN1CCC(N2CCN(C(=O)NCc3cccnc3)CC2)CC1", "note": "[CBK155889]", "% of control remaining": 111.627}
{"smiles": "NS(=O)(=O)c1ccc(CCNC(=O)CN2C(=O)c3ccccc3C2=O)cc1", "note": "[CBK264377]", "% of control remaining": 115.668}
{"smiles": "COc1ccc(CN2CCN(C(=O)c3cccc(F)c3)CC2)c(OC)c1OC", "note": "[CBK074523]", "% of control remaining": 125.39}
{"smiles": "CSc1ccccc1NC(=O)c1cc(Cl)sc1Cl", "note": "[CBK057008]", "% of control remaining": 137.653}
{"smiles": "CN1CCN(c2cc3ncccc3cc2F)CC1", "note": "[CBK066904]", "% of control remaining": 85.835}
{"smiles": "CC(=O)Nc1cccc(C(=O)N2CCN(Cc3ccccn3)CC2)c1", "note": "[CBK304067]", "% of control remaining": 124.278}
{"smiles": "COc1cc(OC)nc(C(NC(=O)C2CCN(Cc3ccc(N(C)C)cc3)CC2)c2ccc(F)cc2)n1", "note": "(stereo not shown) [CBK148204]", "% of control remaining": 109.142}
{"smiles": "Cc1c(C(=O)N(C)CCc2ccncc2)[nH]c2ccccc12", "note": "[CBK283271]", "% of control remaining": 101.755}
{"smiles": "CCC(=O)c1c(CC)n[nH]c1-c1c(Cl)cccc1Cl", "note": "[CBK107819]", "% of control remaining": 175.877}
{"smiles": "CCc1cc(C(=O)Nc2nn(C)c3cccc(N4CCOCC4)c23)cs1", "note": "[CBK307419]", "% of control remaining": 111.398}
{"smiles": "Cc1nc(OCC(=O)O)c(C#N)c2c1COC(C)(C)C2", "note": "[CBK286810]", "% of control remaining": 99.6591}
{"smiles": "CCCn1c(SCC(=O)NCCN2C(=O)CSC2=O)n[nH]c1=O", "note": "[CBK296976]", "% of control remaining": 159.388}
{"smiles": "Cc1nc(CNCc2c(C)nn(C)c2N(C)C)cs1", "note": "[CBK304808]", "% of control remaining": 110.839}
{"smiles": "N#CC(C(=O)CN1CCN(Cc2ccccc2)CC1)c1ccccc1", "note": "(stereo not shown) [CBK269386]", "% of control remaining": 128.187}
{"smiles": "Cc1ncc(CN2CCOC(c3cc(C(=O)NCC(C)C)c4ccccc4n3)C2)s1", "note": "(stereo not shown) [CBK285897]", "% of control remaining": 105.104}
{"smiles": "Cc1nc2ccccc2n1C(F)(F)C(F)F", "note": "[CBK022023]", "% of control remaining": 119.279}
{"smiles": "O=C(Cn1ccc(=O)[nH]c1=O)NCc1cccnc1OC1CCCC1", "note": "[CBK305582]", "% of control remaining": 106.816}
{"smiles": "Cc1ccccc1C(=O)N1C[C@H]2NC(=O)c3ccccc3C(=O)[C@@]2(C)C1", "note": "[CBK285316]", "% of control remaining": 143.599}
{"smiles": "CCCCNC(=O)NC1CCCC1", "note": "[CBK027084]", "% of control remaining": 141.317}
{"smiles": "O=C(Nc1ccncc1)c1cc2cc(Cl)ccc2[nH]1", "note": "[CBK107340]", "% of control remaining": 131.2}
{"smiles": "O=C(CCc1cn2ccccc2n1)NCc1cc2n(n1)CCCNC2", "note": "[CBK307157]", "% of control remaining": 132.668}
{"smiles": "Cc1nnc(SCc2cccc(Oc3ccccc3)c2)n1N", "note": "[CBK265714]", "% of control remaining": 150.493}
{"smiles": "O=C(CN1C(=O)N2CCCN=C2c2ccccc21)N1CCCC1", "note": "[CBK284419]", "% of control remaining": 120.728}
{"smiles": "COc1cccc(CN2CCC(C(=O)O)CC2)c1OC", "note": "[CBK286548]", "% of control remaining": 131.298}
{"smiles": "CCn1cc(CN(Cc2cccnc2)Cc2ccccc2OC)cn1", "note": "[CBK307224]", "% of control remaining": 127.286}
{"smiles": "O=C(O)C1N(Cc2ccccc2)CCCN1Cc1ccccc1", "note": "[CBK265196]", "% of control remaining": 105.49}
{"smiles": "O=C(/C=C/c1cccnc1)Nc1c(F)cc(F)cc1OC1CCNCC1", "note": "[CBK050324T]", "% of control remaining": 100}
{"smiles": "Cc1cc(F)c(S(=O)(=O)N2CCN(C)CC2)cc1NC(=O)c1cc2ccccc2o1", "note": "[CBK034419C]", "% of control remaining": 103.944}
{"smiles": "Cn1cc(CN(Cc2ccccc2)CC2CCCO2)cn1", "note": "(stereo not shown) [CBK283233]", "% of control remaining": 140.402}
{"smiles": "Cc1cc2nc(C3CCCN3C(=O)CN3CCCCC3)[nH]c2cc1C", "note": "(stereo not shown) [CBK282944]", "% of control remaining": 116.112}
{"smiles": "COc1cc(CNC(=O)NC(=O)C2CCN(C(C)C)CC2)cc(OC)c1OC", "note": "[CBK034800]", "% of control remaining": 113.911}
{"smiles": "O=C(Nc1ccccc1Cl)N1CCCCC1CO", "note": "(stereo not shown) [CBK156180]", "% of control remaining": 100}
{"smiles": "Cc1cccc2sc(NC(=O)CCCCCNC(N)=O)nc12", "note": "[CBK296689]", "% of control remaining": 137.504}
{"smiles": "Cc1n[nH]c(C)c1CCC(=O)N/N=C\\c1ccc(Cl)c(Cl)c1", "note": "[CBK263395]", "% of control remaining": 114.947}
{"smiles": "O=C(Nc1ccc2[nH]ncc2c1)c1ccccc1Cl", "note": "[CBK000191]", "% of control remaining": 106.052}
{"smiles": "Cc1ccc(NCC2CCN(CC(=O)Nc3cc(C)on3)C2)nc1", "note": "(stereo not shown) [CBK306337]", "% of control remaining": 150.697}
{"smiles": "O=S(=O)(c1ccc(OC(F)(F)F)cc1)N1CCN(Cc2ccc3c(c2)OCO3)CC1", "note": "[CBK200040]", "% of control remaining": 126.761}
{"smiles": "CCc1nc2ccc(C(=O)N3CCCCC3)cn2c1N(CC)Cc1ccc2c(c1)OCCO2", "note": "[CBK146903]", "% of control remaining": 109.973}
{"smiles": "CCOC(=O)/C(C#N)=C(\\O)c1ccc(N2C(=O)c3ccc(C(=O)O)cc3C2=O)cc1", "note": "[CBK262683]", "% of control remaining": 131.626}
{"smiles": "C=CCNC(=O)N1CC[C@H]2CC(=O)N(Cc3ccc4c(c3)OCO4)CC[C@H]2C1", "note": "[CBK288794]", "% of control remaining": 106.678}
{"smiles": "CN(C)CCN(C)C1CCN(Cc2ccccc2)CC1", "note": "[CBK261930]", "% of control remaining": 104.684}
{"smiles": "O=C(O)CCn1c(=O)cc(C(F)F)c2cn(Cc3ccccc3)nc21", "note": "[CBK286881]", "% of control remaining": 121.378}
{"smiles": "O=C(NCc1ccccc1OC1CCNC1)c1ccccn1", "note": "(stereo not shown) [CBK029464T]", "% of control remaining": 87.4487}
{"smiles": "Cc1nn(CCC(=O)NC(C)(C)CN2CCCC(C)C2)c(C)c1C", "note": "(stereo not shown) [CBK282676]", "% of control remaining": 103.539}
{"smiles": "CC(C)[C@@H](Cn1nc(-c2cccs2)ccc1=O)NC(=O)C1CC1", "note": "[CBK284297]", "% of control remaining": 119.05}
{"smiles": "Cc1cc(-c2nnc(SCC(=O)N3CCCc4ccccc43)o2)no1", "note": "[CBK268828]", "% of control remaining": 138.647}
{"smiles": "COc1cc2c(cc1OC)CN(Cc1nc3ccccc3[nH]1)CC2", "note": "[CBK126390]", "% of control remaining": 108.928}
{"smiles": "Cc1cc(Cl)ccc1NC(=S)NCCc1ccc(S(N)(=O)=O)cc1", "note": "[CBK264888]", "% of control remaining": 119.309}
{"smiles": "O=S(=O)(Nc1cc(NC2CCNC2)c2occc2c1)c1ccccc1", "note": "(stereo not shown) [CBK066943C]", "% of control remaining": 71.9275}
{"smiles": "Cc1ccc(CNC(=O)OCc2cccnc2C)o1", "note": "[CBK200131]", "% of control remaining": 42.1286}
{"smiles": "CC(C)C[C@@H]1NC(=O)C2(C/C=C/C[C@@H]3COCC[C@@H]3NC1=O)CCN(C(=O)[C@H](CO)NC(=O)OCc1ccccc1)CC2", "note": "[CBK292191]", "% of control remaining": 171.011}
